No constants are given. Whether binding was seen depends on the method and setting. Binding seen in cells or lysates may run through a third protein. Some binding calls cover weakened binding; strength is not graded here. Tags and fused reporters may be left off the sequences shown.
Target: T1, HA-tagged KCNE2 (human) (UniProt Q9Y6J6)
T1 sequence: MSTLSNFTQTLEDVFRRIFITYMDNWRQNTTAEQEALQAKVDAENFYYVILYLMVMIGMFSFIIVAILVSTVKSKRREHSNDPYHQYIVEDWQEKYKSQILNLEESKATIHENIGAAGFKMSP
Test: co-IP; lysate of CHO cells co-expressing HA-KCNE2 and DDK-Testin without any Kv alpha subunit; pre-cleared, antibody 1:100 overnight at 4°C, protein A/G PLUS agarose beads; western blot with anti-DDK and anti-HA

binding: binds
B1: DDK-tagged Testin (protein, UniProt Q9UGI8 1-421)
chain: MDLENKVKKMGLGHEQGFGAPCLKCKEKCEGFELHFWRKICRNCKCGQEEHDVLLSNEEDRKVGKLFEDTKYTTLIAKLKSDGIPMYKRNVMILTNPVAAKKNVSINTVTYEWAPPVQNQALARQYMQMLPKEKQPVAGSEGAQYRKKQLAKQLPAHDQDPSKCHELSPREVKEMEQFVKKYKSEALGVGDVKLPCEMDAQGPKQMNIPGGDRSTPAAVGAMEDKSAEHKRTQYSCYCCKLSMKEGDPAIYAERAGYDKLWHPACFVCSTCHELLVDMIYFWKNEKLYCGRHYCDSEKPRCAGCDELIFSNEYTQAENQNWHLKHFCCFDCDSILAGEIYVMVNDKPVCKPCYVKNHAVVCQGCHNAIDPEVQRVTYNNFSWHASTECFLCSCCSKCLIGQKFMPVEGMVFCSVECKKRMS
